This is one part of the list.
Each target was assayed with C1=CC=C(C=C1)[C@H](COC2=CC3=C(C=C2)NC(=O)N3)NC(=O)C4=CC=CN(C4=O)CC5=CC(=C(C=C5)F)F (assay: log2 fold change, soluble protein after heating vs DMSO (PISA); higher = thermal stabilisation; K562 cells, 10 uM, 30 min; active = over 0.2 and 3.5 SD of the protein, either way, in both replicates (recomputed)).
How it was run: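 Aliquots of K562 cells (2×10^6 cells/mL) treated with 10 μM compound for 30 min were heated for 3 min over 48°C-58°C. After pooling and extraction in PBS with 0.5% NP-40 at 4°C, soluble protein from a 21,000xg, 90 min spin was quantified by TMTpro 16plex LC-MS/MS with channel sums equalised. Thermal stability is expressed against control samples, from duplicates, as a log2 fold change.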

Chains of the proteins cited; added tags and fusions are not shown. Lines headed by an entry give the natural chain unless they say otherwise; changes in a name come on top.
UniProt P62308, whole entry, looked up: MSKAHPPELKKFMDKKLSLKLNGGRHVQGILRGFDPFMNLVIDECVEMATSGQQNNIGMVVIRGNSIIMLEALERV
UniProt Q8NDV3: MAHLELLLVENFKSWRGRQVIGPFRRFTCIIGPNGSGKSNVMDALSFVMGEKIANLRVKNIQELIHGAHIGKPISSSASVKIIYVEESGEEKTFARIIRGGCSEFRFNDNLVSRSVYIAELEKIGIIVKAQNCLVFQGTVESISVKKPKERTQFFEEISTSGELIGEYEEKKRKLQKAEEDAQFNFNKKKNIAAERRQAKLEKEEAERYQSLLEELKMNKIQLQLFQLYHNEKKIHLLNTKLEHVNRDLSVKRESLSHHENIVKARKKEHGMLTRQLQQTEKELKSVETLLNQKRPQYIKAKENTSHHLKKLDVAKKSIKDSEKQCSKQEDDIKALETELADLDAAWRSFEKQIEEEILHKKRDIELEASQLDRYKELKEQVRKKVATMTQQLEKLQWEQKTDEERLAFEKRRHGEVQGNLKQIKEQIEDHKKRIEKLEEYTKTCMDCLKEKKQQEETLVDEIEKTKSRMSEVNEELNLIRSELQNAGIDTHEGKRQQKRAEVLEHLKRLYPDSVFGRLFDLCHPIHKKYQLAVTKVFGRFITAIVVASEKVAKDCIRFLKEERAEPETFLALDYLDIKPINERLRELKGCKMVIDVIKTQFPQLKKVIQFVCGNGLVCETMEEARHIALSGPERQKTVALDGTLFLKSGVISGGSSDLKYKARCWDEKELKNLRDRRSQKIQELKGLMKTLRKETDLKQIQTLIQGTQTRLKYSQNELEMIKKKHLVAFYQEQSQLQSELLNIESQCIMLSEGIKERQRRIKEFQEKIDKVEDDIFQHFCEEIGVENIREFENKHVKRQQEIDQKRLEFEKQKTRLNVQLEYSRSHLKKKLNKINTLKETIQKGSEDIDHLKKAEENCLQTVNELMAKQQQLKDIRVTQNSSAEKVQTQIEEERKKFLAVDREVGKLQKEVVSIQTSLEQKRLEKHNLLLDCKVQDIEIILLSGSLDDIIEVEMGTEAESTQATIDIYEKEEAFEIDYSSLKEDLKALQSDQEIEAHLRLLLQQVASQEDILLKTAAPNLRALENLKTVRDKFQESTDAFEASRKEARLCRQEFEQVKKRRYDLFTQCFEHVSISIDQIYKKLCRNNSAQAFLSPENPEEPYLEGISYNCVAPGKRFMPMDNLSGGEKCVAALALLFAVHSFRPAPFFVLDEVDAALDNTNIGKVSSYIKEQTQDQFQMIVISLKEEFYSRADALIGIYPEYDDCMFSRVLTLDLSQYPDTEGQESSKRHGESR
UniProt O95149, whole entry, looked up: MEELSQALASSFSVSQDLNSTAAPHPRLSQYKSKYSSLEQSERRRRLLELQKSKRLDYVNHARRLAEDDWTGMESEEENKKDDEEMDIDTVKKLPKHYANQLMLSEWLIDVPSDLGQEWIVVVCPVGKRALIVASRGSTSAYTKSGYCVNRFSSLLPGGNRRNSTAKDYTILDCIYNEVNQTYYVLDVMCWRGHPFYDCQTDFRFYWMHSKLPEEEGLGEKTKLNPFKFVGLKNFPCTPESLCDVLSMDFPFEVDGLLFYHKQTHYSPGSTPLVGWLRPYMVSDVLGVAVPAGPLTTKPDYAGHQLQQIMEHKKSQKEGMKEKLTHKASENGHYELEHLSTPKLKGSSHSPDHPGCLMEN
UniProt P62314, whole entry, looked up: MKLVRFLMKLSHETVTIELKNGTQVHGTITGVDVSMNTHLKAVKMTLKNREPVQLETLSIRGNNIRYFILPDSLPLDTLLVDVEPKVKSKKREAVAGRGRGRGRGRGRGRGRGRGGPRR
UniProt Q8WVI0: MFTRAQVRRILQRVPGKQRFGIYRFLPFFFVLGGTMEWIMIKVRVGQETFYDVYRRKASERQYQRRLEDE
UniProt P52788: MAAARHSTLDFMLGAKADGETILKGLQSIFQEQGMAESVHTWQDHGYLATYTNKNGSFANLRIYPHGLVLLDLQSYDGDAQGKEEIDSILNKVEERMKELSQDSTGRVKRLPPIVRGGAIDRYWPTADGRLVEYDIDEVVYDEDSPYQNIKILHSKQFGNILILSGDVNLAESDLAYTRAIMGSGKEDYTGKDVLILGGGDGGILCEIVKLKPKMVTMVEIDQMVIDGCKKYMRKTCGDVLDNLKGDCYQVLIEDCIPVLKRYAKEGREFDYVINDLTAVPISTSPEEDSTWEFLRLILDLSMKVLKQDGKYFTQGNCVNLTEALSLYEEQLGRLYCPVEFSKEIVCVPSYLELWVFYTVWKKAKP
UniProt Q96EX1: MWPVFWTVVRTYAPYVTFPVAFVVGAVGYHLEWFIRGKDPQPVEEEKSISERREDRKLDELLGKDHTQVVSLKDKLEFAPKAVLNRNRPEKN
UniProt O75643, whole entry, looked up: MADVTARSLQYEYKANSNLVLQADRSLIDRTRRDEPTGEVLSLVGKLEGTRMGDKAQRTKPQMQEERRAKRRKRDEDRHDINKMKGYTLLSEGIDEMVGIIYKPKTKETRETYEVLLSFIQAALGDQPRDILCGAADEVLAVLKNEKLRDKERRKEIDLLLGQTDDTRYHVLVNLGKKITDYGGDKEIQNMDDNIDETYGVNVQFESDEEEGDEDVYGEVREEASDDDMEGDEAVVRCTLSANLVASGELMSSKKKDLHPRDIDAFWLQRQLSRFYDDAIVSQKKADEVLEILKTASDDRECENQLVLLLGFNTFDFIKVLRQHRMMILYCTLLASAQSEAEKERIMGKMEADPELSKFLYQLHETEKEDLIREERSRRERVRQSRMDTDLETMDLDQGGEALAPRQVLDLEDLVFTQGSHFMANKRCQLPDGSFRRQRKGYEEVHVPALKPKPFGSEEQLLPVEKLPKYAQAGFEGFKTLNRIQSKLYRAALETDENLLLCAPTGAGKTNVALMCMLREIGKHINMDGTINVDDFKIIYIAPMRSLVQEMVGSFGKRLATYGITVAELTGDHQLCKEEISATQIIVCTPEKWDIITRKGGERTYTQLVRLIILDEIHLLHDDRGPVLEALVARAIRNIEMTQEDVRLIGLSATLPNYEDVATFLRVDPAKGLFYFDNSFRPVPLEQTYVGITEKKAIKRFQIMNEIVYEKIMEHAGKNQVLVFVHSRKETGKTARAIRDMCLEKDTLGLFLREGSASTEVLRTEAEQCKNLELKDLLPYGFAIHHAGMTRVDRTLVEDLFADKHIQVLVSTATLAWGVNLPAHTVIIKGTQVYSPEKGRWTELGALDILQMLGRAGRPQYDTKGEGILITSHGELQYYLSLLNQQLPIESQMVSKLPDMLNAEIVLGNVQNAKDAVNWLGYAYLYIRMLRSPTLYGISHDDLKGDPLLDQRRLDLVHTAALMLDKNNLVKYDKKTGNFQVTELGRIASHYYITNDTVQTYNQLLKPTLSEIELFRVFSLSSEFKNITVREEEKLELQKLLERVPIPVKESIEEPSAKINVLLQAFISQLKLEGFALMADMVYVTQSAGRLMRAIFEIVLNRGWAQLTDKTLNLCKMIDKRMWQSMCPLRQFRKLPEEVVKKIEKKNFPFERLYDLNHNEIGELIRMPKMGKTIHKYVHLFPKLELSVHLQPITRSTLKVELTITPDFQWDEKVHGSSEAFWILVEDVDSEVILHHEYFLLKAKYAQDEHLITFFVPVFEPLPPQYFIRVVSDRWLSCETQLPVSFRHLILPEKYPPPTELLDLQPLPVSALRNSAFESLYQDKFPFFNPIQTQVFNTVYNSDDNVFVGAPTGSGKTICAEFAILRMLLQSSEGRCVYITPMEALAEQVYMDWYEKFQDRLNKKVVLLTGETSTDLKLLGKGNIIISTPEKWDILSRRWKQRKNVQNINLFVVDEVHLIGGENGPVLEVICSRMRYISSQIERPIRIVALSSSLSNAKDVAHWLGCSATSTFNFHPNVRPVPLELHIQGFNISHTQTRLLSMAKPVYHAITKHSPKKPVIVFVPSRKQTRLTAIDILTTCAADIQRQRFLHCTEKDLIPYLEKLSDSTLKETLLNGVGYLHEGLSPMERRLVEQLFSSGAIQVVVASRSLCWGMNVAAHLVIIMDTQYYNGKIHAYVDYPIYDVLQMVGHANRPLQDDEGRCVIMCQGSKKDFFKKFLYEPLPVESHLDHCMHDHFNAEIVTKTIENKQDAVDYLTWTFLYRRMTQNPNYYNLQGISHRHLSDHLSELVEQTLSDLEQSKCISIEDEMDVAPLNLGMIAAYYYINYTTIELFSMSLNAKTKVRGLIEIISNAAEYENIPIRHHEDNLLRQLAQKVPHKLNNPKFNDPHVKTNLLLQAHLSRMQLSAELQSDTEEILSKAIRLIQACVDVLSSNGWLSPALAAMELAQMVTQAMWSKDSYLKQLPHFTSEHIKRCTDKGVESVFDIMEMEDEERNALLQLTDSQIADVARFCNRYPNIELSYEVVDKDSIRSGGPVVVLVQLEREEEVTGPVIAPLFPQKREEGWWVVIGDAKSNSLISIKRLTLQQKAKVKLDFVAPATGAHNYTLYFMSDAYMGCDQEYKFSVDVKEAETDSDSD
UniProt Q9UNH7: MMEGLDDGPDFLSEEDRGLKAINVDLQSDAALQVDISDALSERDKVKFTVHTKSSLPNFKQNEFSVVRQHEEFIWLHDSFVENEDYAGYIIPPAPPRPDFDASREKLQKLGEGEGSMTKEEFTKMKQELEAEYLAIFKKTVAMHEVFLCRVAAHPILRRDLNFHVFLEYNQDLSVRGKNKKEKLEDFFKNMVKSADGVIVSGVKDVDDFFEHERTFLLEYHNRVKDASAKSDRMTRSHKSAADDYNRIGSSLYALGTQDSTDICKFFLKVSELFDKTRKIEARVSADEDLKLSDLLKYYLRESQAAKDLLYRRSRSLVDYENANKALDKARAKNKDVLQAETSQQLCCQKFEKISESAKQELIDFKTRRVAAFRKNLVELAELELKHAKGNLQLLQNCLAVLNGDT
UniProt Q92536: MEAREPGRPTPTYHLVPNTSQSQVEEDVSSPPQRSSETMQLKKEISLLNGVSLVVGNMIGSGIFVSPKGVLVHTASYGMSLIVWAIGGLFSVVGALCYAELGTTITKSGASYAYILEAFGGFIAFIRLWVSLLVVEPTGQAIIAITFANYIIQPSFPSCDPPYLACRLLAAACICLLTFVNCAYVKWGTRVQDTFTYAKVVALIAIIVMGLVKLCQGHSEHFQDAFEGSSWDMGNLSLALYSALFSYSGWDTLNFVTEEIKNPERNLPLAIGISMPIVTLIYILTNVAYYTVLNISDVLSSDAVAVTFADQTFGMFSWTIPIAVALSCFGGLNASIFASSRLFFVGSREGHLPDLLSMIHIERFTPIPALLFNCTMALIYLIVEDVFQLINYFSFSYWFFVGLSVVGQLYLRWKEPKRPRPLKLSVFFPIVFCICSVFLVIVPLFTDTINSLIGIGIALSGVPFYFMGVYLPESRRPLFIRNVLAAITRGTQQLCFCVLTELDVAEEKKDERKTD
UniProt O75940: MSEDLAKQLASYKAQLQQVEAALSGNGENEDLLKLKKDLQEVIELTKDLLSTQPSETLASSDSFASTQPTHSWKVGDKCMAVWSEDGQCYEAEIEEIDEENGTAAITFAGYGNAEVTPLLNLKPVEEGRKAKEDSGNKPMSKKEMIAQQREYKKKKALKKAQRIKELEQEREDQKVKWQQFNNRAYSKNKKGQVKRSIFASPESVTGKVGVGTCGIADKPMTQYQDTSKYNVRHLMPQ
UniProt P62306, whole entry, looked up: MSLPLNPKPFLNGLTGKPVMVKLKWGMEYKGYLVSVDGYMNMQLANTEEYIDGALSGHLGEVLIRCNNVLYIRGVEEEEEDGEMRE
UniProt Q9NXE4: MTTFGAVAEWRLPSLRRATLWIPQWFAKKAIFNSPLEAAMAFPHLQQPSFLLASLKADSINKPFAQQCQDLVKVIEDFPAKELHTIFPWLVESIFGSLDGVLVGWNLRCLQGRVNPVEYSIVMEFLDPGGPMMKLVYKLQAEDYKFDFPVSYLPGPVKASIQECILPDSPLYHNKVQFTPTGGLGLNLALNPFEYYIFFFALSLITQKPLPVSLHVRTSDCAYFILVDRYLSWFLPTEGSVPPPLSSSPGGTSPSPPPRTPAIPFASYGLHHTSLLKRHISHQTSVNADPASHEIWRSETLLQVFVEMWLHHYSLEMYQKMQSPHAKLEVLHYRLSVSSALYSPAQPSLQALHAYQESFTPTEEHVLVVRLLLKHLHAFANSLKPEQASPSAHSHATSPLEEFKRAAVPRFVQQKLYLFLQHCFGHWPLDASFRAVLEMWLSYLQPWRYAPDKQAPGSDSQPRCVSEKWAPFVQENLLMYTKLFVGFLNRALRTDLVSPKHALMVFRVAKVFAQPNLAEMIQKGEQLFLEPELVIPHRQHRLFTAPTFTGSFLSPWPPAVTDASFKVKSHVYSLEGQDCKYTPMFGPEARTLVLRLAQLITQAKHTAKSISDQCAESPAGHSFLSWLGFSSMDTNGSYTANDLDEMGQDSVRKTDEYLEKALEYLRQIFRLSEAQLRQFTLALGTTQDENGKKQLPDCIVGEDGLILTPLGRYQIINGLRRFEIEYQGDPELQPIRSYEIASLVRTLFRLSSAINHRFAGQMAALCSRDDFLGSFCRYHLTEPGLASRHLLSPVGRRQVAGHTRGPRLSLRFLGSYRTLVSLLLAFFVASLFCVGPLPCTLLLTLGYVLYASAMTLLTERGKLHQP

Target | log2 fold change
SNRPG (UniProt P62308) | inactive: 0.026
SMC1B isoform 3 (UniProt Q8NDV3) | inactive: 0.115
SNUPN (UniProt O95149) | inactive: -0.027
SNRPD1 (UniProt P62314) | inactive: 0.007
SMAP (UniProt O00193) | inactive: -0.082
SMIM4 (UniProt Q8WVI0) | inactive: -0.061
SP100 isoform 4 (UniProt P23497) | inactive: -0.006
SMARCA5 (UniProt O60264) | inactive: -0.168
SOX7 isoform 2 (UniProt Q9BT81) | inactive: 0.112
SNCA (UniProt P37840) | inactive: 0.055
SMS (UniProt P52788) | inactive: 0.002
SMIM12 (UniProt Q96EX1) | inactive: 0.015
SOX5 (UniProt P35711) | inactive: -0.033
SNRNP200 (UniProt O75643) | inactive: 0.017
SNX1 (UniProt Q13596) | inactive: -0.019
SNX6 (UniProt Q9UNH7) | inactive: -0.037
SLC7A6 (UniProt Q92536) | inactive: -0.063
SMNDC1 (UniProt O75940) | inactive: 0.072
SNRPF (UniProt P62306) | inactive: -0.053
SNX11 (UniProt Q9Y5W9) | inactive: 0.004
SMPD4 isoform 4 (UniProt Q9NXE4) | inactive: -0.094
SNX2 (UniProt O60749) | inactive: -0.015
SLK isoform 2 (UniProt Q9H2G2) | inactive: 0.016

Retrieved one by one from the entries so far:
Target | log2 fold change
SMC1B isoform 3 (UniProt Q8NDV3) | inactive: 0.115
SMS (UniProt P52788) | inactive: 0.002
